From ChEMBL document CHEMBL5674883, “The Heterochromatin Landscape in Migrating Cells and the Importance of H3K27me3 for Associated Transcriptome Alterations” (Cells, 2018)
Further values from the same series stand in other lists.

By UniProt entry, the sequences of proteins in these tests, tags left out.
UniProt Q61188, whole entry: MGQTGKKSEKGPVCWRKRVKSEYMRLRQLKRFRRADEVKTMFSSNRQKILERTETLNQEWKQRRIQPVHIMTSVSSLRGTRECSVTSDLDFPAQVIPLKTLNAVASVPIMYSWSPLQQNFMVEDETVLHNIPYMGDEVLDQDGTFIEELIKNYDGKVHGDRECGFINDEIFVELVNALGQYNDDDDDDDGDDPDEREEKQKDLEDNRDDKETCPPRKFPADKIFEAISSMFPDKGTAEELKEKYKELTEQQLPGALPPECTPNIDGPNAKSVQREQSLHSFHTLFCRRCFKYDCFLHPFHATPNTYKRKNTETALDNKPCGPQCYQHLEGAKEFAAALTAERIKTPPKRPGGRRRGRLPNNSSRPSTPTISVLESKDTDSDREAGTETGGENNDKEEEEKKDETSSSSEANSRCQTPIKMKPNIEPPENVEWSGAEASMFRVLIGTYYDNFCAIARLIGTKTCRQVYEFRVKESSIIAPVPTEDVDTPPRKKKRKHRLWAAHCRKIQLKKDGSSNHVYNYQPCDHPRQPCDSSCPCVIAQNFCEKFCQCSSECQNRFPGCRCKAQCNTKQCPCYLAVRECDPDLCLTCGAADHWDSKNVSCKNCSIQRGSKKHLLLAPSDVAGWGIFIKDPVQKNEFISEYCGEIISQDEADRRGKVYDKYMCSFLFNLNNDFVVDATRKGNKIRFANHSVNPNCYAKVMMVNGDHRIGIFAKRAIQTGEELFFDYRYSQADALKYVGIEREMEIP

Columns and labels:
Format in all cases: cell-based
[1] = target: T1, RNA polymerase II (Mus musculus) (UniProt P08775+Q8CFI7+P97760+A0A3Q4L2S8+Q80UW8+P61219+P62488+Q923G2+P60898+O08740+Q63871+P62876); assay: Inhibition of RNA polymerase II in mouse B16-F1 migrating cells assessed as fold change in Jmjd1c-RNA stability at 0.1 mM measured by ChIP-seq analysis relative to control cells
[2] = target: T1, RNA polymerase II (Mus musculus); assay: Inhibition of RNA polymerase II in mouse B16-F1 migrating cells assessed as fold change in Cdca7-RNA stability at 0.1 mM measured by ChIP-seq analysis relative to control cells
[3] = target: T1, RNA polymerase II (Mus musculus); assay: Inhibition of RNA polymerase II in mouse B16-F1 migrating cells assessed as fold change in Zfp644-RNA stability at 0.1 mM measured by ChIP-seq analysis relative to control cells
[4] = target: T1, RNA polymerase II (Mus musculus); assay: Inhibition of RNA polymerase II in mouse B16-F1 migrating cells assessed as fold change in Ccnc-RNA stability at 0.1 mM measured by ChIP-seq analysis relative to control cells
[5] = target: T1, RNA polymerase II (Mus musculus); assay: Inhibition of RNA polymerase II in mouse B16-F1 migrating cells assessed as fold change in P4hb-RNA stability at 0.1 mM measured by ChIP-seq analysis relative to control cells
[6] = target: T1, RNA polymerase II (Mus musculus); assay: Inhibition of RNA polymerase II in mouse B16-F1 migrating cells assessed as fold change in Fktn-RNA stability at 0.1 mM measured by ChIP-seq analysis relative to control cells
[7] = target: T1, RNA polymerase II (Mus musculus); assay: Inhibition of RNA polymerase II in mouse B16-F1 migrating cells assessed as fold change in Taok1-RNA stability at 0.1 mM measured by ChIP-seq analysis relative to control cells
[8] = target: T1, RNA polymerase II (Mus musculus); assay: Inhibition of RNA polymerase II in mouse B16-F1 migrating cells assessed as fold change in Zfp638-RNA stability at 0.1 mM measured by ChIP-seq analysis relative to control cells
[9] = target: T1, RNA polymerase II (Mus musculus); assay: Inhibition of RNA polymerase II in mouse B16-F1 migrating cells assessed as fold change in Qpct-RNA stability at 0.1 mM measured by ChIP-seq analysis relative to control cells
[10] = target: T1, RNA polymerase II (Mus musculus); assay: Inhibition of RNA polymerase II in mouse B16-F1 migrating cells assessed as fold change in Pdk3-RNA stability at 0.1 mM measured by ChIP-seq analysis relative to control cells
[11] = target: T1, RNA polymerase II (Mus musculus); assay: Inhibition of RNA polymerase II in mouse B16-F1 migrating cells assessed as fold change in Tbc1d7-RNA stability at 0.1 mM measured by ChIP-seq analysis relative to control cells
[12] = target: T1, RNA polymerase II (Mus musculus); assay: Inhibition of RNA polymerase II in mouse B16-F1 migrating cells assessed as fold change in Wbp2-RNA stability at 0.1 mM measured by ChIP-seq analysis relative to control cells
[13] = target: T1, RNA polymerase II (Mus musculus); assay: Inhibition of RNA polymerase II in mouse B16-F1 migrating cells assessed as fold change in Washc4-RNA stability at 0.1 mM measured by ChIP-seq analysis relative to control cells
[14] = target: T1, RNA polymerase II (Mus musculus); assay: Inhibition of RNA polymerase II in mouse B16-F1 migrating cells assessed as fold change in Ufc1-RNA stability at 0.1 mM measured by ChIP-seq analysis relative to control cells
[15] = target: T1, RNA polymerase II (Mus musculus); assay: Inhibition of RNA polymerase II in mouse B16-F1 migrating cells assessed as fold change in Smarcb1-RNA stability at 0.1 mM measured by ChIP-seq analysis relative to control cells
[16] = target: T1, RNA polymerase II (Mus musculus); assay: Inhibition of RNA polymerase II in mouse B16-F1 migrating cells assessed as fold change in Ppig-RNA stability at 0.1 mM measured by ChIP-seq analysis relative to control cells
[17] = target: T1, RNA polymerase II (Mus musculus); assay: Inhibition of RNA polymerase II in mouse B16-F1 migrating cells assessed as fold change in Lamtor1-RNA stability at 0.1 mM measured by ChIP-seq analysis relative to control cells
[18] = target: T1, RNA polymerase II (Mus musculus); assay: Inhibition of RNA polymerase II in mouse B16-F1 migrating cells assessed as fold change in Cdc27-RNA stability at 0.1 mM measured by ChIP-seq analysis relative to control cells
[19] = target: Histone-lysine N-methyltransferase EZH2 (Mus musculus) (UniProt Q61188); assay: Inhibition of EZH2 in mouse B16-F1 migrating cells assessed as fold change in H3K27me3-independent regulated Gadd45g-mRNA expression at 3 uM measured by ChIP-seq analysis relative to control cells
[20] = target: Histone-lysine N-methyltransferase EZH2 (Mus musculus) (UniProt Q61188); assay: Inhibition of EZH2 in mouse B16-F1 migrating cells assessed as fold change in H3K27me3-buffered regulated Acpp-mRNA expression at 3 uM measured by ChIP-seq analysis relative to control cells
[21] = target: Histone-lysine N-methyltransferase EZH2 (Mus musculus) (UniProt Q61188); assay: Inhibition of EZH2 in mouse B16-F1 migrating cells assessed as fold change in H3K27me3-buffered regulated Mapk8-mRNA expression at 3 uM measured by ChIP-seq analysis relative to control cells
[22] = target: Histone-lysine N-methyltransferase EZH2 (Mus musculus) (UniProt Q61188); assay: Inhibition of EZH2 in mouse B16-F1 migrating cells assessed as fold change in H3K27me3-dependent regulated Smad7-mRNA expression at 3 uM measured by ChIP-seq analysis relative to control cells
[23] = target: Histone-lysine N-methyltransferase EZH2 (Mus musculus) (UniProt Q61188); assay: Inhibition of EZH2 in mouse B16-F1 migrating cells assessed as fold change in H3K27me3-buffered regulated Gcc2-mRNA expression at 3 uM measured by ChIP-seq analysis relative to control cells
[24] = target: Histone-lysine N-methyltransferase EZH2 (Mus musculus) (UniProt Q61188); assay: Inhibition of EZH2 in mouse B16-F1 migrating cells assessed as fold change in H3K27me3-buffered regulated Chchd10-mRNA expression at 3 uM measured by ChIP-seq analysis relative to control cells
[25] = target: Histone-lysine N-methyltransferase EZH2 (Mus musculus) (UniProt Q61188); assay: Inhibition of EZH2 in mouse B16-F1 migrating cells assessed as fold change in H3K27me3-buffered regulated Cpeb2-mRNA expression at 3 uM measured by ChIP-seq analysis relative to control cells
[26] = target: Histone-lysine N-methyltransferase EZH2 (Mus musculus) (UniProt Q61188); assay: Inhibition of EZH2 in mouse B16-F1 migrating cells assessed as fold change in H3K27me3-buffered regulated Tfrc-mRNA expression at 3 uM measured by ChIP-seq analysis relative to control cells
[27] = target: Histone-lysine N-methyltransferase EZH2 (Mus musculus) (UniProt Q61188); assay: Inhibition of EZH2 in mouse B16-F1 migrating cells assessed as fold change in H3K27me3-buffered regulated Otud1-mRNA expression at 3 uM measured by ChIP-seq analysis relative to control cells
[28] = target: Histone-lysine N-methyltransferase EZH2 (Mus musculus) (UniProt Q61188); assay: Inhibition of EZH2 in mouse B16-F1 migrating cells assessed as fold change in H3K27me3-dependent regulated Spry4-mRNA expression at 3 uM measured by ChIP-seq analysis relative to control cells
[29] = target: Histone-lysine N-methyltransferase EZH2 (Mus musculus) (UniProt Q61188); assay: Inhibition of EZH2 in mouse B16-F1 migrating cells assessed as fold change in H3K27me3-buffered regulated Rarg-mRNA expression at 3 uM measured by ChIP-seq analysis relative to control cells
[30] = target: Histone-lysine N-methyltransferase EZH2 (Mus musculus) (UniProt Q61188); assay: Inhibition of EZH2 in mouse B16-F1 migrating cells assessed as fold change in H3K27me3-buffered regulated Vdr-mRNA expression at 3 uM measured by ChIP-seq analysis relative to control cells

## OC[C@H]1O[C@@H](n2cnc3cc(Cl)c(Cl)cc32)[C@H](O)[C@@H]1O
[1]
  log2FC: -0.56
[2]
  log2FC: -0.86
[3]
  log2FC: -0.59
[4]
  log2FC: -0.91
[5]
  log2FC: 0.44
[6]
  log2FC: -0.76
[7]
  log2FC: -0.5
[8]
  log2FC: -0.79
[9]
  log2FC: -0.58
[10]
  log2FC: 0.6
[11]
  log2FC: 0.54
[12]
  log2FC: 0.42
[13]
  log2FC: -0.54
[14]
  log2FC: 0.4
[15]
  log2FC: 0.43
[16]
  log2FC: -0.81
[17]
  log2FC: 0.52
[18]
  log2FC: -0.7

## CCCc1cc(C)[nH]c(=O)c1CNC(=O)c1cc(-c2ccnc(N3CCN(C)CC3)c2)cc2c1cnn2C(C)C
[19]
  log2FC: 0.84
[20]
  log2FC: -0.39
[21]
  log2FC: -0.39
[22]
  log2FC: 0.38
[23]
  log2FC: -0.48
[24]
  log2FC: 0.46
[25]
  log2FC: -0.41
[26]
  log2FC: -0.38
[27]
  log2FC: -0.48
[28]
  log2FC: -0.45
[29]
  log2FC: -0.46
[30]
  log2FC: 1.62
